Experimental data: PubChem BioAssay AID743458 (Peter MacCallum Cancer Centre, 2014)
Test: 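Identify genes whose loss lifts vorinostat resistance in colon cancer cells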 (follow-up of hits). System: human HCT116-VR colon cancer cells made resistant to vorinostat. Reagents: single siRNA or pool against human genes, 25 nM per single siRNA. Time to read-out: about 72 h after transfection, including 24 h of drug. Treatment: vorinostat, 2.5 µM final, for 24 h. Read-out: 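Live-cell fluorescent viability and luminescent caspase 3/7 activity after vorinostat treatment, background subtracted, mean of duplicate plates, as fold change over mock-transfected wells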. Reading the numbers: viability relative to mock: higher = more living cells than mock; caspase activity relative to mock: higher = more apoptosis than mock. Hit rule: 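Active means a reduced-viability or caspase-activation class, anything else inactive; classes could only be given to wells that looked healthy when left untreated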.
In all, the deposit lists about 1,800 reagents; shown is a part drawn at random. 732 of all reagents (41%) count as active. 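Calls are per siRNA reagent; a gene was deemed confirmed only if most of its four siRNAs scored.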 Unmarked entries are inactive. Reagents against one gene are numbered here.

| target | reagent no. | viability relative to mock | caspase activity relative to mock | viability hit class | caspase hit class |
| --- | --- | --- | --- | --- | --- |
| ADRA2C (adrenoceptor alpha 2C) | 1 | 0.5 (active) | 1.6 | reduced viability | no change |
| ADRA2C (adrenoceptor alpha 2C) | 2 | 1.01 | 0.86 | no change | no change |
| ADRA2C (adrenoceptor alpha 2C) | 3 | 0.68 | 1.18 | no change | no change |
| ADRA2C (adrenoceptor alpha 2C) | 4 | 0.98 | 1.07 | no change | no change |
| MTFR2 (mitochondrial fission regulator 2) | 1 | 0.89 | 1.46 | no change | no change |
| MTFR2 (mitochondrial fission regulator 2) | 2 | 0.52 (active) | 1.05 | reduced viability | no change |
| MTFR2 (mitochondrial fission regulator 2) | 3 | 0.94 | 1.27 | no change | no change |
| MTFR2 (mitochondrial fission regulator 2) | 4 | 0.44 (active) | 1.08 | reduced viability | no change |
| CRIM1 (cysteine rich transmembrane BMP regulator 1) | 1 | 0.76 | 1.46 | no change | no change |
| CRIM1 (cysteine rich transmembrane BMP regulator 1) | 2 | 1.03 (active) | 4.59 | no change | caspase activation |
| CRIM1 (cysteine rich transmembrane BMP regulator 1) | 3 | 0.81 | 1.67 | no change | no change |
| CRIM1 (cysteine rich transmembrane BMP regulator 1) | 4 | 0.82 (active) | 2.94 | no change | caspase activation |
| TMEM203 (transmembrane protein 203) | 1 | 0.9 | 0.97 | no change | no change |
| TMEM203 (transmembrane protein 203) | 2 | 0.74 (active) | 2.76 | no change | caspase activation |
| TMEM203 (transmembrane protein 203) | 3 | 0.96 | 0.92 | no change | no change |
| TMEM203 (transmembrane protein 203) | 4 | 0.76 (active) | 2.6 | no change | caspase activation |
| GABRR3 (gamma-aminobutyric acid type A receptor subunit rho3) | 1 | 0.66 (active) | 3.26 | no change | caspase activation |
| GABRR3 (gamma-aminobutyric acid type A receptor subunit rho3) | 2 | 0.96 | 0.77 | no change | no change |
| GABRR3 (gamma-aminobutyric acid type A receptor subunit rho3) | 3 | 0.44 (active) | 1.62 | reduced viability | no change |
| GABRR3 (gamma-aminobutyric acid type A receptor subunit rho3) | 4 | 0.88 | 1 | no change | no change |
| ZFP64 (ZFP64 zinc finger protein) | 1 | 0.76 (active) | 8.01 | no change | caspase activation |
| ZFP64 (ZFP64 zinc finger protein) | 2 | 0.4 (active) | 0.96 | reduced viability | no change |
| ZFP64 (ZFP64 zinc finger protein) | 3 | 0.48 (active) | 2.81 | reduced viability | caspase activation |
| ZFP64 (ZFP64 zinc finger protein) | 4 | 0.94 | 0.91 | no change | no change |
| DHDH (dihydrodiol dehydrogenase) | 1 | 0.26 (active) | 2.91 | reduced viability | caspase activation |
| DHDH (dihydrodiol dehydrogenase) | 2 | 1.04 | 2.28 | no change | no change |
| DHDH (dihydrodiol dehydrogenase) | 3 | 0.73 | 0.9 | no change | no change |
| DHDH (dihydrodiol dehydrogenase) | 4 | 0.85 | 1.28 | no change | no change |
| PALM (paralemmin) | 1 | 0.94 | 1.22 | no change | no change |
| PALM (paralemmin) | 2 | 0.88 | 1.12 | no change | no change |
| PALM (paralemmin) | 3 | 0.68 (active) | 3.66 | no change | caspase activation |
| PALM (paralemmin) | 4 | 0.39 (active) | 4.56 | reduced viability | caspase activation |
| RPS10 (ribosomal protein S10) | 1 | 0.47 (active) | 1.16 | reduced viability | no change |
| RPS10 (ribosomal protein S10) | 2 | 0.36 (active) | 1.01 | reduced viability | no change |
| RPS10 (ribosomal protein S10) | 3 | 0.98 | 1.12 | no change | no change |
| RPS10 (ribosomal protein S10) | 4 | 0.26 (active) | 1.38 | reduced viability | no change |
| CNOT3 (CCR4-NOT transcription complex subunit 3) | 1 | 0.84 | 2.53 | no change | no change |
| CNOT3 (CCR4-NOT transcription complex subunit 3) | 2 | 0.39 (active) | 5.36 | reduced viability | caspase activation |
| CNOT3 (CCR4-NOT transcription complex subunit 3) | 3 | 0.56 (active) | 4.59 | reduced viability | caspase activation |
| CNOT3 (CCR4-NOT transcription complex subunit 3) | 4 | 0.82 (active) | 5.02 | no change | caspase activation |
| MYCBPAP (MYCBP associated protein) | 1 | 0.3 | 0.66 | no change | no change |
| MYCBPAP (MYCBP associated protein) | 2 | 0.82 | 1.23 | no change | no change |
| MYCBPAP (MYCBP associated protein) | 3 | 0.66 (active) | 4.03 | no change | caspase activation |
| MYCBPAP (MYCBP associated protein) | 4 | 0.99 | 1.05 | no change | no change |
| HSPA6 (heat shock protein family A (Hsp70) member 6) | 1 | 0.98 | 2.1 | no change | no change |
| HSPA6 (heat shock protein family A (Hsp70) member 6) | 2 | 0.55 (active) | 3.84 | reduced viability | caspase activation |
| HSPA6 (heat shock protein family A (Hsp70) member 6) | 3 | 0.9 | 2.5 | no change | no change |
| HSPA6 (heat shock protein family A (Hsp70) member 6) | 4 | 0.82 (active) | 3.98 | no change | caspase activation |
| NKX6-3 (NK6 homeobox 3) | 1 | 0.84 | 1.32 | no change | no change |
| NKX6-3 (NK6 homeobox 3) | 2 | 0.48 | 4.62 | no change | no change |
| NKX6-3 (NK6 homeobox 3) | 3 | 0.75 | 1.94 | no change | no change |
| NKX6-3 (NK6 homeobox 3) | 4 | 0.91 (active) | 2.68 | no change | caspase activation |
| FMR1 (fragile X messenger ribonucleoprotein 1) | 1 | 0.52 (active) | 4.13 | reduced viability | caspase activation |
| FMR1 (fragile X messenger ribonucleoprotein 1) | 2 | 0.82 | 1.96 | no change | no change |
| FMR1 (fragile X messenger ribonucleoprotein 1) | 3 | 0.83 | 1.88 | no change | no change |
| FMR1 (fragile X messenger ribonucleoprotein 1) | 4 | 0.75 | 2.13 | no change | no change |
| SLC7A1 | 1 | 0.75 | 1.01 | no change | no change |
| SLC7A1 | 2 | 0.77 | 2.05 | no change | no change |
| SLC7A1 | 3 | 0.64 | 2.22 | no change | no change |
| SLC7A1 | 4 | 0.44 (active) | 1.47 | reduced viability | no change |

3 entries already listed, sorted by “caspase activity relative to mock”, lowest first.
| target | reagent no. | viability relative to mock | caspase activity relative to mock | viability hit class | caspase hit class |
| --- | --- | --- | --- | --- | --- |
| MYCBPAP (MYCBP associated protein) | 1 | 0.3 | 0.66 | no change | no change |
| MYCBPAP (MYCBP associated protein) | 2 | 0.82 | 1.23 | no change | no change |
| MYCBPAP (MYCBP associated protein) | 3 | 0.66 (active) | 4.03 | no change | caspase activation |
